Data set [1] concerns the target T1, dSNF1-101 (RRM1) (UniProt P43332).
T1 sequence (looked up): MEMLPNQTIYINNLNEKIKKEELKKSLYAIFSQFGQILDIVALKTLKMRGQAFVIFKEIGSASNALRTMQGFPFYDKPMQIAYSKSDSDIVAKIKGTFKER
As to the kind of experiment: NMR chemical shift perturbation. The following applies: 300 uM protein, 1.1 mM RNA; NMR: 50 mM KCl, 20 mM sodium cacodylate pH 6.5, 2 mM EDTA, 23 C; recombinant protein; residues 1-101; label: 32P internal (UTP, CTP) for filter binding; letters put together from the description.

Data set [2] deals with T1, dSNF1-101 (RRM1). As to the kind of experiment: filter binding. Particulars: without dU2A', RRM1 said to bind dU2SLIV 10 to 100-fold weaker than dU1SLII, depending on salt; filter binding: KCl varied, other conditions not stated; recombinant protein; residues 1-101; label: 32P internal (UTP, CTP) for filter binding; letters put together from the description.

The exact form of at least one protein or probe is not confirmed. For some assays here: At least one verdict rests on a figure or table, not on a statement of the authors. Protein sequences can lack the tags named with them.

Regarding “GGCCGGUAUUGCAGUACCGCCGGGUCC [dU2SLIV (T7, NMR and filter binding)]”, the binding result with dSNF1-101 (RRM1) [1] and with dSNF1-101 (RRM1) [2] was “binds” throughout.

These data come from article PMC5992148, “Molecular principles underlying dual RNA specificity in the Drosophila SNF protein”.
